This note sets out measurements from PubChem BioAssay AID1645887 (National Center for Advancing Translational Sciences (NCATS), 2021).

Protein sequences, listed by entry. Tags and fused reporters are not part of them. Lines headed by an entry give the natural chain unless they say otherwise; changes in a name come on top.
UniProt Q8WZA2: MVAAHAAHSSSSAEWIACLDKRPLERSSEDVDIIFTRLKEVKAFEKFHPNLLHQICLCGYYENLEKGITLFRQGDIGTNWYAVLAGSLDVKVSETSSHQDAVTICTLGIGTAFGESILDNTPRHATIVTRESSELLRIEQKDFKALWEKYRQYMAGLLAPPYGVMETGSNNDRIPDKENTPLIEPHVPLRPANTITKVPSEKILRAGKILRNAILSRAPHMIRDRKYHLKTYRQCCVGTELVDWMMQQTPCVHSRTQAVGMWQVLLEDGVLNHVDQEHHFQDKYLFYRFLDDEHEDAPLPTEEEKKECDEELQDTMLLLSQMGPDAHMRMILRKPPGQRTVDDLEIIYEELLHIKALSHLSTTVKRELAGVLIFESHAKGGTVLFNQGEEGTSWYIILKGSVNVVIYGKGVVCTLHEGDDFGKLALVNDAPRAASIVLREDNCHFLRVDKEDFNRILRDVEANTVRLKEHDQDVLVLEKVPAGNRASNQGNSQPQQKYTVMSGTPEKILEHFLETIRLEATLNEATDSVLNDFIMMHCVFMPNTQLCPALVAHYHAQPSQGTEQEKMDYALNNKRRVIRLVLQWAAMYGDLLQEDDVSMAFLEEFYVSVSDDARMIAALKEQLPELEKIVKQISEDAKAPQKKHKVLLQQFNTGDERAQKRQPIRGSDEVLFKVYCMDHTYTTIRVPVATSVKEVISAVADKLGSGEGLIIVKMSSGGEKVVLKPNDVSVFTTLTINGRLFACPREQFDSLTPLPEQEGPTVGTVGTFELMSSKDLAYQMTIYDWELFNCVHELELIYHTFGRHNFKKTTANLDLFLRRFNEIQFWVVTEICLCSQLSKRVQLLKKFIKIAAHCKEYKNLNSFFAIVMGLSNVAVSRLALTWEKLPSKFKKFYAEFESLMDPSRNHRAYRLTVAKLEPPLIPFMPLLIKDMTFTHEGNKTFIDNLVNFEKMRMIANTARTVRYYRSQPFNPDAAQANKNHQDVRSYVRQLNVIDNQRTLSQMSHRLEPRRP

The hits were mostly taken out for another list; the other results follow. Calls of active or inactive are those of the source. Calls come from the whole dose curve; as a rule, active = well fitted activation curve with a large enough effect; inconclusive = small, poorly fitted or top-dose-only effect, or another doubt; inactive = no such curve, though single readings can be large or run the other way.
% is set by controls: 0 for no effect and ±100 for the full control effect.

The target in the assay is Rap guanine nucleotide exchange factor 4 (Homo sapiens) (UniProt Q8WZA2). In words: Validation qHTS for agonist of cAMP-regulated guanine nucleotide exchange factor 4 (EPAC2).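 Note: exchange makes BODIPY-GDP fluorescence drop when released from Rap1B; series mostly up to about 150 µM.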 Particulars: EPAC2 Rap1B BODIPY-GDP exchange, fluorescence; hits give high values. The text has this: Principle Investigator: Xiaodong Cheng Ph.D.
The University of Texas Medical Branch, […], TX
In multi-cellular eukaryotic organisms, the effects of cAMP are transduced by two ubiquitously-expressed intracellular cAMP receptors, the classic protein kinase A/cAMP-dependent protein kinase (PKA/cAPK) and the more recently discovered exchange protein directly activated by cAMP/cAMP-regulated guanine nucleotide exchange factor (EPAC/cAMP-GEF). Both PKA and EPAC are ubiquitously expressed in all tissues, and an increase in intracellular cAMP levels will lead to the activation of both PKA and EPAC. […]
This qHTS will be used to screen the Molecular Libraries Small Molecule Repository (MLSMR) as a concentration-titration series using the NCGC unique quantitative screening (qHTS) platform to find activators for EPAC1. […] Activators are identified by monitoring the change in fluorescence signal as the exchanged free BODIPY-GDP has a reduced fluorescence compared to Rap1-bound BODIPY-GDP. […]
Briefly, three uL of reagents (100 nM EPAC2, 250 nM RAP1B-BODIPY-GDP, 50 uM GDP) were dispensed into a 1536-well Greiner black solid-bottom medium binding assay plate. […] The assay plates were read at 5 minute intervals for 30 minutes in the ViewLux plate reader using 480nm excitation and 540nm emission filters. […]
`CC(C)(C)c1ccc(O)cc1`: the activation is inactive: -17.2%.
